The nature of this data set: general procedure: hybrid (solid and solution phase) peptide synthesis; Wang resin; 2-chloro-trityl chloride resin; PyBOP; HATU; OSu ester (EDC/HOSu). Particulars: for conjugation yield: conjugation step.

Some peptides are written in HELM: one residue between dots, names in brackets for other building blocks, links after the first $.

“Fm-GABA←-mGly-Ala-Ser-Chg-Gln-Ser-Leu-OH”: the outcome (whole synthesis) is listed as “could not be achieved following standard automated peptide synthesis methods”.

Take Fm-GABA←mGly-Ala-Ser-Chg-OH: the step yield (coupling step) came out at 56%.

“Glutaryl-Ser-Ala-Ser-Chg-Gln-Ser-Leu-Dox” came in with a conjugation yield of 34%.

“PEPTIDE1{[GABA-mGly].A.S.[Chg].Q.S.L.[Dox-3N]}$$$$V2.0”: the conjugation yield is given as 28%.

Consider “PEPTIDE1{[GABA-mGly].A.S.[Chg].Q.[NHOCH2CMe2CO].[Dox-14O]}$$$$V2.0”, for which the conjugation yield is recorded as 18%.

Values taken from patent US11628221B2 (priority 2017, dated 2023).
